# From PubChem BioAssay AID1439 (NMMLSC, 2008)
# Sequences of proteins named here, by UniProt entry; tags and fusion partners are left off.
# UniProt P09471, whole entry, looked up: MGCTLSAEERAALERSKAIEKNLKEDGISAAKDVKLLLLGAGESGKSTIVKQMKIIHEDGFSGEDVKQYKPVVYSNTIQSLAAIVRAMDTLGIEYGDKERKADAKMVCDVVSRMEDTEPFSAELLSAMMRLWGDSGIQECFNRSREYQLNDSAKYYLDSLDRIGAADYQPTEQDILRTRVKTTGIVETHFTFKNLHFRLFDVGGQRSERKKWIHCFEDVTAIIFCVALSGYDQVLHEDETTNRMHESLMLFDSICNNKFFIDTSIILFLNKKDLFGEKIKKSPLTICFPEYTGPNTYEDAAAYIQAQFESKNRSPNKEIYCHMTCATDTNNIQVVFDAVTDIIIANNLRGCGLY
# Screen size: about 220,000 compounds; about 770 (0.35%) were called active. The shares of active, inactive and inconclusive entries below differ from those in the screen. Rule as the data show it: active = binding response below about 49% or above about 150%; inconclusive = no clear call, values can overlap the other calls; inactive = in between.
# Biological target: Guanine nucleotide-binding protein G(o) subunit alpha (Homo sapiens) (UniProt P09471)
# Test: RGS7-Galphao binding modulators, primary screen, biochemical, multiplexed bead flow cytometry (AID 1439);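 also: fluorescent Galphao held in activated GDP-AlF4 state binding bead-coupled RGS7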
# Conditions: at 10 µM, actives lie on both sides
row,Structure (SMILES),binding response (% of control)
1,COc1cccc(CSc2nnnn2-c2ccc(O)cc2)c1,inconclusive: 91.8%
2,O=C(CNc1cc(S(=O)(=O)N2CCOCC2)ccc1N1CCCC1)N1CCc2ccccc21,inactive: 106%
3,Cc1nn(CCO)c(N)c1C1(O)C(=O)Nc2c(Cl)cc(Cl)cc21 (configuration not stated),inactive: 98.7%
4,O=C(COc1ccc(Cl)cc1Cl)N/N=C/c1ccc(OC2OC(CO)C(O)C(O)C2O)cc1 (configuration not stated),inconclusive: 51%
5,CSCCC(NC(=O)c1cccc(C)c1)C(=O)O (configuration not stated),inconclusive: 89.7%
6,O=C(O)CCNS(=O)(=O)c1ccccc1C(F)(F)F,inconclusive: 98%
7,Cc1ccc(C(C)C)cc1OCCCCN1CCCC1,inactive: 99.1%
8,Cc1nn(-c2ccccc2)c(C)c1C=O,inconclusive: 52.4%
9,COc1ccc(C(=O)C2CCN(C(=S)Nc3ccc(F)cc3)CC2)cc1,inactive: 102%
10,Cc1cc(C)cc(C(=O)NCC(=O)OCc2c(C)noc2C)c1,active: -0.1%
11,NC1=NS(=O)(=O)NC1c1ccc(F)cc1 (configuration not stated),inactive: 98.7%
12,N#C/C(=C\c1ccc(F)cc1F)S(=O)(=O)c1ccccn1,inconclusive: 260%
13,CCCc1nc(SC)[nH]c(=O)c1C,inconclusive: 106%
14,O=C(/C=C/C=C/c1ccccc1)c1ccco1,inconclusive: 60.1%
15,Cc1nc(CCNC(=O)CC2C(=O)NCCN2Cc2ccccc2F)sc1C (configuration not stated),inconclusive: 90.6%
16,Cc1ccc(S(=O)(=O)NCCc2nnc3ccc(SCc4cccnc4)nn23)cc1,inactive: 95.6%
17,COC(=O)c1cccc(C23CC4(C2)[C@H](CN(CC2CCCCC2)[C@@H]4c2ccccc2)C3c2ccccc2)c1 (some centres not stated),inconclusive: 78%
18,Nc1nc(C23CC4CC(CC(C4)C2)C3)[nH]c(=O)n1,inconclusive: 76.7%
19,COc1ccc(S(=O)(=O)N2CCCCC2)cc1NCC(=O)Nc1ccc(C)cc1,inconclusive: 98.9%
20,Cc1ccc2nc(SC(C)C(=O)N3CCCCC3)[nH]c2c1 (configuration not stated),inconclusive: 105%
21,CCOC(=O)c1c(-c2cccc3ccccc23)csc1NC(=O)C1C2CCC(O2)C1C(=O)O (configuration not stated),inactive: 96.8%
22,CCOC(=O)C1CCN(S(=O)(=O)Cc2ccc(Cl)cc2)CC1,active: 164% [activator]
23,NS(=O)(=O)c1ccc(CNC(=S)NC2CCCCC2)cc1,inconclusive: 124%

# Rewritten bar-delimited: entries from further up.
row | Structure (SMILES) | binding response (% of control)
10 | Cc1cc(C)cc(C(=O)NCC(=O)OCc2c(C)noc2C)c1 | active: -0.1%
11 | NC1=NS(=O)(=O)NC1c1ccc(F)cc1 (configuration not stated) | inactive: 98.7%
12 | N#C/C(=C\c1ccc(F)cc1F)S(=O)(=O)c1ccccn1 | inconclusive: 260%
13 | CCCc1nc(SC)[nH]c(=O)c1C | inconclusive: 106%

# (listing goes on)

row,Structure (SMILES),binding response (% of control)
1,CCOc1ccc(NC(=O)CC(NCc2ccccn2)C(=O)O)cc1 (configuration not stated),inactive: 96.3%
2,Cc1ccc(/C=N/NC(=S)Nc2cccc(S(=O)(=O)N(C)C)c2)o1,inconclusive: 134%
3,COc1ccc(C(CNC(=O)c2ccccc2SC)N(C)C)cc1 (configuration not stated),inconclusive: 110%
4,O=C(NCCc1csc(-c2ccccc2)n1)c1ccco1,inconclusive: 102%
5,COc1ccccc1CNC(=O)CSc1nc(C)cs1,inconclusive: 110%
6,O=C1NC[C@@H](Cc2cccc3ccccc23)N(CCc2cc(C(F)(F)F)cc(C(F)(F)F)c2)C1=O,inconclusive: 110%
7,N#Cc1cc(-c2ccccc2)nc(NN)n1,inconclusive: 396%
8,CC1CCCCC1NC(=O)c1ccc(S(=O)(=O)NNC(=O)c2ccncc2)cc1 (configuration not stated),inconclusive: 88.2%
9,Cn1c(N)c(C(=O)COC(=O)c2ccc3c(c2)C(=O)N(c2ccc(Cl)cc2)C3=O)c(=O)n(C)c1=O,inactive: 97.7%
10,CCOC(=O)c1c(NC(=O)COC)sc(C)c1C,inactive: 108%
11,O=C(NC12CC3CC(CC(C3)C1)C2)OCCNC1CCCCC1,inconclusive: 85.3%
12,CC(C)c1nnc(NC(=O)c2cc3cc(Br)ccc3oc2=O)s1,inconclusive: 106%
13,Cc1cccc(NNC(=O)C2CCC2)c1,inconclusive: -16.5%
14,CC(C)c1ccc(/C=C2\C(=O)N(CCN3CCOCC3)C(=S)N2C)cc1,inconclusive: 87.2%
15,Cc1ccnn1CC(=O)N/N=C/c1cn[nH]c1-c1ccccc1,inconclusive: 78.5%
16,COC(=O)c1c(C)oc(C)c1S(=O)(=O)N1CCOCC1,inconclusive: 115%
17,CC(CNCC1CCCO1)COc1ccccc1 (configuration not stated),inactive: 108%
18,CCc1nnc(NC(=O)c2ccc(S(C)(=O)=O)cc2)s1,inconclusive: -33.9%
19,S=c1nc(-c2cc(Cl)cc(Cl)c2)[nH][nH]1,inconclusive: 146%
20,Cc1cccc(CSc2nnc([C@@H]3CCCN3)o2)c1,inconclusive: -27.9%
21,O=[N+]([O-])c1ccc(Sc2cc[n+]([O-])c3ccccc23)c([N+](=O)[O-])c1,inconclusive: 109%
22,Cc1ccc(-c2nc(-c3ccccn3)sc2CC(=O)O)cc1,inconclusive: 144%
23,Cc1ccc2c(CN3CCN(C(=O)c4ccco4)CC3)cc(=O)oc2c1C,inconclusive: 89.1%

row,Structure (SMILES),binding response (% of control)
1,CCCc1nccn1S(=O)(=O)c1cc(OC)ccc1OC,inactive: 98.7%
2,C=CCN1C(=O)C(CC(=O)Nc2ccccc2)S/C1=N/c1nccs1 (configuration not stated),inconclusive: 102%
3,O=C(N/N=C/c1ccccn1)c1cccc(S(=O)(=O)Nc2ccccc2Cl)c1,inconclusive: 90%
4,O=C1Nc2ccccc2/C1=N\N=C\c1ccc(O)c(O)c1,inconclusive: -122%
5,C/C=C\C(=O)Nc1cccc(C2=NOC3(C2)C[C@H](C(N)=O)N(C(=O)Cc2ccc([N+](=O)[O-])cc2)C3)c1 (some centres not stated),inconclusive: 101%
6,COc1ccc(/C=N/Nc2nc(-c3ccc(C)cc3)c(NC(C)=O)s2)cc1OC,inconclusive: 101%
7,Nc1ccc(-c2nc3ccc(N)cc3s2)cc1,inconclusive: 86.5%
8,COCCN(C(=S)Nc1cc(C)cc(C)c1)C(C)c1ccco1 (configuration not stated),inactive: 97.2%
9,COCCNC(=S)N/N=C(\C)c1cccc([N+](=O)[O-])c1,inactive: 101%
10,Cc1cc(NC(=O)CSc2nnc(Nc3ccccc3F)s2)no1,inconclusive: 98.7%
11,CNC(=S)c1cc(C(C)(C)C)c(O)c(C(C)(C)C)c1,inconclusive: 112%
12,Cc1ccc(S(=O)(=O)NNC(=O)c2ccoc2C)cc1,inconclusive: 118%
13,CCOC(=O)C1=C(O)C(=O)N(c2ccc(S(N)(=O)=O)cc2)C1c1ccc([N+](=O)[O-])cc1 (configuration not stated),inconclusive: 316%
14,COc1ccc(OC)c(/C=N/n2c(-c3n[nH]c4c3CCC4)n[nH]c2=S)c1,inconclusive: -26.6%
15,Cc1cc(NC(=O)CN2C(=O)NC(C)(c3ccc(Cl)cc3)C2=O)no1 (configuration not stated),inactive: 89.4%
16,CCn1c(CCCCc2n[nH]c(=S)n2CC)n[nH]c1=S,inconclusive: 103%
17,COc1cc(/C=C2/CCCC(C(=O)C(F)(F)F)=C2O)ccc1O,inconclusive: 120%
18,CC(C)(C)NC(=O)NC(=O)CSc1nncs1,inconclusive: 110%
19,COc1ccccc1-c1cn[nH]c1-c1ccc(OCc2ccc([N+](=O)[O-])cc2)cc1O,inconclusive: 140%
20,CCCn1c(=O)c2[nH]cnc2n(-c2ccccc2C)c1=O,inconclusive: 347%
21,CC1=[N+](C)N(c2ccccc2)C(=O)C1N=Cc1ccc(Cl)cc1 (configuration not stated),inactive: 87.6%
22,CS(=O)(=O)N(Cc1ccccc1)c1ccc(C(=O)NCCSCc2ccco2)cc1,inactive: 95.8%
23,COc1ccc(OC)c(/C=C/C(=O)Nc2ccc(OC)nc2)c1,inconclusive: 93.5%

row,Structure (SMILES),binding response (% of control)
1,CC1(c2ccc([N+](=O)[O-])c(CS(=O)(=O)c3ccccc3)c2)OCCO1,inactive: 102%
2,Cc1ccc(CSc2nnc(SCC(=O)N/N=C/c3ccccc3OCC(=O)O)s2)cc1,inconclusive: 81%
3,CCOC(=O)C1CNc2cc(S(=O)(=O)CC)ccc2O1 (configuration not stated),inactive: 98%
4,O=C(Cc1ccccc1)NNC1CC(=O)N(c2ccc(Oc3ccccc3)cc2)C1=O (configuration not stated),inconclusive: 139%
5,Cc1cc([N+](=O)[O-])nn1CC(=O)NCc1nc2ccccc2[nH]1,inactive: 102%
6,COc1ccc(NC(=O)c2cc3c(=O)n(C)c4ccccc4c3n2C)cc1Cl,inconclusive: 157%
7,O=[N+]([O-])c1ccc(Nc2nc(NCCO)nc(N3CCCC3)n2)cc1,inconclusive: 105%
8,O=C(CCCN1C(=O)c2cccc3cccc(c23)C1=O)N1CCN(c2ncccn2)CC1,inconclusive: 90.8%
9,CCOC(=O)C1(C)C=C(Nc2cccc(OC)c2)C(=O)N1c1ccccc1 (configuration not stated),inconclusive: 89.7%
10,CSc1nc(N)nc(C(C)C)n1,inconclusive: 85.6%
11,CCOC(=O)C1(CCCc2ccccc2)CCN(C(=O)C2=C(C)OCCO2)CC1,inactive: 98.5%
12,COc1cc(/C=C/C(=O)OCC(=O)NC(=O)NC(C)C)ccc1O,inconclusive: 81.1%
13,COc1ccc2[nH]cc(CCNC(=S)NC3CCCC3)c2c1,inconclusive: 102%
14,CC(C)CN(C(=O)c1ccco1)c1nc2ccccc2s1,inconclusive: 102%
15,O=[N+]([O-])c1ccc(N2CCN(C(=S)c3cccc([N+](=O)[O-])c3)CC2)cc1,inconclusive: 69%
16,Cc1cc(C(=O)c2cnc(/N=C/N(C)C)s2)c(F)cc1Cl,inactive: 104%
17,COCCN1C=C2C(=O)C(C)(OC(=O)C3CCCC3)C(=O)C(c3ccccc3)=C2C=C1CCCC(=O)OC (configuration not stated),inconclusive: 88.5%
18,COc1ccc(C(=O)Nc2ccc(S(=O)(=O)N3CCCC3)cc2)cc1,inconclusive: 112%
19,Cc1ccc(C)c(NC(=O)CSc2nnc(-c3ccncc3)o2)c1,inconclusive: 259%
20,C/C(=N\NC(=S)NC(C)C)c1ccc(C(C)(C)C)cc1,inconclusive: 99.8%
21,Cc1cccc(-c2nc(N)nc(N)n2)c1,inconclusive: 88.3%
22,COc1cc(-c2nc3ccccn3c2/N=C/c2cc(OC)c(O)cc2Cl)ccc1O,inactive: 96.4%
23,CN1C(=O)/C(=C/c2ccc(C(=O)NC3CCCC3)cc2)Oc2ccccc21,inactive: 98.8%
